Test results reported in PubChem BioAssay AID2318 (National Center for Advancing Translational Sciences (NCATS), 2010).
The inconclusive results got no clear call from the source; some entries with a clear call stand among them for comparison. Where the call is inconclusive, the potency comes from a doubtful curve fit. Active and inactive are the calls of the source. The call rests on the fitted dose curve.

test: Cycloheximide Counterscreen for Small Molecule Inhibitors of Shiga Toxin (Confirmatory); settings: protein synthesis reporter, Shiga toxin assay; series mostly up to 38.3 µM; activity (activation): at the top concentration; on activity (activation): 0% is about no effect
Potency means the concentration at half of the fitted maximal effect.

| Structure (SMILES) | Potency | activity (activation) |
| --- | --- | --- |
| CC(C)c1ccccc1NC(=O)c1ccco1 | inconclusive: 25.2 µM [activator, partial curve, poor fit] |  |
| C/C1=C\[C@@H](O)C(C(C)C)C(OC(=O)c2ccc(O)cc2)C/C(C)=C/CC1 (some centres not stated) | inconclusive: 22.5 µM [activator, partial curve, poor fit] |  |
| O=c1[nH]nc(CNc2ccc(C(F)(F)F)cc2)c2ccccc12 | inconclusive: 25.2 µM [activator, partial curve, poor fit] |  |
| Cc1ccc(NC(=O)c2cccc(N3C(=O)C4C5C=CC(C5)C4C3=O)c2)cc1C (configuration not stated) |  | inactive: 3.01% |
| O=C(O)Cc1ccc2oc(-c3ccccn3)nc2c1 | inconclusive: 15.9 µM [activator, partial curve, poor fit] |  |
| Cc1ccc(CSc2nnc(CCCCCNC(=O)OC(C)(C)C)o2)cc1 |  | inactive: -0.533% |
| COc1ccc(C(C)(C)C)cc1NC(=O)c1ccc2c(c1)SC1=NS(=O)(=O)CCN12 |  | inactive: -1.39% |
| Cc1cnc(NC(=O)c2ccc(-c3nc4ccccc4s3)o2)s1 | inconclusive: 12.6 µM [activator, partial curve, poor fit] |  |
| Cc1nn(C(C)C(=O)NC2CCC(C)CC2)c(=O)c2nn(-c3ccccc3)c(C)c12 (configuration not stated) | inconclusive: 10 µM [activator, partial curve] |  |
| Cc1ccc(C(=O)CSc2nnnn2C(C)C)c(C)c1 | active: 0.318 µM |  |
| Cc1oncc1-c1csc(-c2ccccc2Cl)n1 | inconclusive: 14.2 µM [activator, partial curve, poor fit] |  |
| Nc1nc(-c2ccc3c(c2)CCC(=O)N3)cs1 | inconclusive: 25.2 µM [activator, partial curve, poor fit] |  |
| CCC(=O)N1CCN(c2ccc(NC(=O)c3ccccc3)cc2)CC1 | inconclusive: 28.3 µM [activator, partial curve, poor fit] |  |
| CCCC(=O)Nc1cnc(NC(=O)c2cccc(F)c2)cc1C | active: 1.59 µM |  |
| Cc1cc(N/C=C\c2nnnn2-c2ccccc2)no1 | inconclusive: 22.5 µM [activator, partial curve] |  |
| O=C(NCCc1c[nH]c2ccccc12)C(F)(F)F |  | inactive: -1.22% |
| Cc1nc(-c2ccccc2)sc1C1(C)CC(c2cccc([N+](=O)[O-])c2)=NO1 (configuration not stated) |  | inactive: 1.12% |
| O=C(NCCc1csc(-c2cccnc2)n1)c1ccc(Cl)cc1 | inconclusive: 28.3 µM [activator, partial curve, poor fit] |  |
| COc1ccccc1NC(=O)CSc1nnc(CC(=O)Nc2ccccc2F)n1C |  | inactive: -1.77% |
| CSc1nc2ccc(N3C(=O)C4CCCCC4C3=O)cc2s1 (configuration not stated) | inconclusive: 17.9 µM [activator, partial curve, poor fit] |  |
| Cc1nonc1OCCCNc1ccc([N+](=O)[O-])cc1Cl | inconclusive: 22.5 µM [activator, partial curve] |  |
| COc1cc(/C=C2/C(=O)c3cccc([N+](=O)[O-])c3C2=O)c(Br)cc1O | inconclusive: 22.5 µM [activator, single point] |  |

By substructure: the entries above with an NH in an aromatic ring (two)

| Structure (SMILES) | Potency | activity (activation) |
| --- | --- | --- |
| O=c1[nH]nc(CNc2ccc(C(F)(F)F)cc2)c2ccccc12 | inconclusive: 25.2 µM [activator, partial curve, poor fit] |  |
| O=C(NCCc1c[nH]c2ccccc12)C(F)(F)F |  | inactive: -1.22% |
